PubChem BioAssay AID1259308 – NCATS, 2017
Shown is a random part of about 59,000 deposited reagents. About 1,510 of them (2.6%) were called active. 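Calls use total luciferase alone and ignore viability, so some active siRNAs may act by altering cell number.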 The numbers tell different reagents against one gene apart.

- Screen: 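Candidate targets for better recombinant protein yield in mammalian cells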 (primary screen)
- System: human HEK293 embryonic kidney cells stably expressing firefly luciferase (HEK-CMV-Luc2-Hygro)
- Reagents: single siRNA against human genes, 0.8 pmol siRNA per well
- Time to read-out: 72 h
- Detection: 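Luciferase light (ONE-Glo) measured on one replicate plate set and viability (CellTiter-Glo) on the other, scaled to a negative control siRNA, with robust z-scores and luciferase per cell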
- Direction: total luciferase, z-score and total luciferase, % of control: higher = more reporter protein produced; luciferase per cell, z-score: higher = more reporter output per viable cell; viable cells, % of control: higher = more viable cells
- Rule for the call: 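Active when the median/MAD z-score for overall luciferase is greater than 3; a gene was taken forward for validation with new siRNAs if at least two of its three siRNAs passed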
- Meaning of the calls: active = raised luciferase; inactive = no rise

gene	reagent	total luciferase, z-score	total luciferase, % of control	luciferase per cell, z-score	viable cells, % of control	Outcome
PIP4K2C	1	0.635	94.5	0.588	90.5	inactive
PIP4K2C	2	0.629	94.4	-0.0501	107	inactive
PIP4K2C	3	0.129	84.5	-0.175	98.8	inactive
PIM2	1	4.66	174	3.5	77.6	active
PIM2	2	-0.837	65.2	0.101	71	inactive
PIM2	3	-0.106	79.8	-0.234	94.8	inactive
WDR83OS	1	1.54	112	1.95	75.2	inactive
WDR83OS	2	-0.91	63.8	-0.964	91.9	inactive
WDR83OS	3	0.0179	82.2	-0.264	98.5	inactive
PPDPFL	1	1.37	109	2.01	71.8	inactive
PPDPFL	2	0.192	85.7	-0.0401	96.8	inactive
PPDPFL	3	-0.38	74.3	-1.04	109	inactive
CALD1	1	0.594	93.7	0.742	86.1	inactive
CALD1	2	0.243	86.7	1.62	63.3	inactive
CALD1	3	1.33	108	1.43	83	inactive
TYW3	1	8.67	254	5.22	71.9	active
TYW3	2	-0.476	72.4	0.46	71.7	inactive
TYW3	3	-1.06	60.7	8.73	6.82	inactive
SLC22A9	1	0.437	90.6	-0.0293	102	inactive
SLC22A9	2	0.379	89.4	-0.283	108	inactive
SLC22A9	3	-0.54	71.1	-0.257	85.1	inactive
ZNF850-DT	1	-0.0101	81.7	-0.0963	93.6	inactive
ZNF850-DT	2	1.2	106	1.23	85.5	inactive
ZNF850-DT	3	1.43	110	1.3	87.5	inactive
GPR179	1	0.764	97.1	0.64	91.7	inactive
GPR179	2	-2	42.1	-2.03	80.3	inactive
GPR179	3	1.23	106	0.797	96.3	inactive
SLFN14	1	0.297	87.8	0.689	81.8	inactive
SLFN14	2	0.158	85	-0.682	114	inactive
SLFN14	3	0.0826	83.5	-0.848	117	inactive
VTCN1	1	1.55	113	1.11	94.1	inactive
VTCN1	2	-0.881	64.4	-1.27	100	inactive
VTCN1	3	-0.82	65.6	-0.771	89.8	inactive
CHAF1B	1	2.03	122	1.14	101	inactive
CHAF1B	2	1.19	106	1.01	90.5	inactive
CHAF1B	3	3.14	144	2	95.1	active
TMPRSS11B	1	1.65	115	0.6	109	inactive
TMPRSS11B	2	-0.0593	80.7	-0.291	97.4	inactive
TMPRSS11B	3	0.468	91.2	-0.177	107	inactive
SLC22A12	1	-0.479	72.4	-1.05	107	inactive
SLC22A12	2	1.02	102	0.888	90.3	inactive
SLC22A12	3	0.256	87	0.266	90.6	inactive
SCD	1	0.00343	82	-0.348	100	inactive
SCD	2	-1.05	60.9	-1.62	104	inactive
SCD	3	0.387	89.6	-0.065	102	inactive
WAS	1	-0.0298	81.3	-0.206	95.9	inactive
WAS	2	-1.03	61.5	1.93	41.3	inactive
WAS	3	1.43	110	0.664	104	inactive

12 entries already listed, sorted by “luciferase per cell, z-score”, lowest first.
gene	reagent	total luciferase, z-score	total luciferase, % of control	luciferase per cell, z-score	viable cells, % of control	Outcome
GPR179	2	-2	42.1	-2.03	80.3	inactive
SLFN14	2	0.158	85	-0.682	114	inactive
SLC22A9	2	0.379	89.4	-0.283	108	inactive
SLC22A9	3	-0.54	71.1	-0.257	85.1	inactive
ZNF850-DT	1	-0.0101	81.7	-0.0963	93.6	inactive
SLC22A9	1	0.437	90.6	-0.0293	102	inactive
GPR179	1	0.764	97.1	0.64	91.7	inactive
SLFN14	1	0.297	87.8	0.689	81.8	inactive
GPR179	3	1.23	106	0.797	96.3	inactive
ZNF850-DT	2	1.2	106	1.23	85.5	inactive
ZNF850-DT	3	1.43	110	1.3	87.5	inactive
TYW3	3	-1.06	60.7	8.73	6.82	inactive

Next entries follow.
gene	reagent	total luciferase, z-score	total luciferase, % of control	luciferase per cell, z-score	viable cells, % of control	Outcome
NPFFR2	1	-0.309	75.7	-0.25	90.4	inactive
NPFFR2	2	-0.601	69.9	-1.59	119	inactive
NPFFR2	3	-0.212	77.7	-0.628	102	inactive
ADAMTS4	1	0.326	88.4	0.949	76.9	inactive
ADAMTS4	2	-0.0838	80.2	-0.141	93	inactive
ADAMTS4	3	-0.00473	81.8	-0.135	94.7	inactive
CLK2	1	0.338	88.6	-0.0841	101	inactive
CLK2	2	-0.589	70.2	-1.03	103	inactive
CLK2	3	0.0796	83.5	-0.432	105	inactive
RPS14P3	1	0.679	95.4	0.167	102	inactive
RPS14P3	2	0.616	94.1	0.98	81.3	inactive
RPS14P3	3	-1.94	43.2	-1	62.9	inactive
FIMP1	1	-0.742	67.1	-1.14	101	inactive
FIMP1	2	-1.24	57.3	-1.51	95.3	inactive
FIMP1	3	-0.586	70.2	-0.73	95.1	inactive
CTCF	1	-0.484	72.3	0.0153	80.4	inactive
CTCF	2	-0.861	64.8	-1.26	101	inactive
CTCF	3	0.138	84.6	-0.155	98.5	inactive
NR2E3	1	-0.498	72	-0.24	85.7	inactive
NR2E3	2	1.06	103	0.405	103	inactive
NR2E3	3	1.13	104	0.508	102	inactive
IQGAP2	1	1.99	121	1.84	83.6	inactive
IQGAP2	2	-0.486	72.2	-0.919	103	inactive
IQGAP2	3	-0.215	77.6	-0.223	92	inactive
FAM133A	1	-0.0885	80.1	0.037	88.7	inactive
FAM133A	2	-0.493	72.1	-0.781	98.9	inactive
FAM133A	3	0.992	102	0.703	94.4	inactive
